In the supplement of paper PMC10849652:
Some of the results follow.

Protein sequences, listed by entry. Tags and fused reporters are not part of them. Lines headed by an entry give the natural chain unless they say otherwise; changes in a name come on top.
UniProt Q9Y316: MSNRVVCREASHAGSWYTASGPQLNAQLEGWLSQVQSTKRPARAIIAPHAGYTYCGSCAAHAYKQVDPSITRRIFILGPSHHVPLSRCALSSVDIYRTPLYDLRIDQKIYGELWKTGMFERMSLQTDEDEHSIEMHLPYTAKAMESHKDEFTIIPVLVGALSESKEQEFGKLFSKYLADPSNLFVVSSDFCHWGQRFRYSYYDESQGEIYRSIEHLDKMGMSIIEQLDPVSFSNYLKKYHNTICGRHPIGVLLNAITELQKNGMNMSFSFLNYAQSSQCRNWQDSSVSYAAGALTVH
UniProt P56270: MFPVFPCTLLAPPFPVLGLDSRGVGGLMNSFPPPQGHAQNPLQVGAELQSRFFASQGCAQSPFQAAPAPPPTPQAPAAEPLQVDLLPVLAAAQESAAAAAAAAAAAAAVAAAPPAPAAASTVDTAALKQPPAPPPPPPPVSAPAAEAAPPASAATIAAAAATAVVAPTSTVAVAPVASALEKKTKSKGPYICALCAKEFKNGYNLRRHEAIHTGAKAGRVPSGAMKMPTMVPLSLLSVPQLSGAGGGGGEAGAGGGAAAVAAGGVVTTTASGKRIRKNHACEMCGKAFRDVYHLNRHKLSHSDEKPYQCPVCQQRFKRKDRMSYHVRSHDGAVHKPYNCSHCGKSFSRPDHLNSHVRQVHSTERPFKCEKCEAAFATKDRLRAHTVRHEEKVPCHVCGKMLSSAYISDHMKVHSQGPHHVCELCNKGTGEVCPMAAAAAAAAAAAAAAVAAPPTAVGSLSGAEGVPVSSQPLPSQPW
UniProt Q08431: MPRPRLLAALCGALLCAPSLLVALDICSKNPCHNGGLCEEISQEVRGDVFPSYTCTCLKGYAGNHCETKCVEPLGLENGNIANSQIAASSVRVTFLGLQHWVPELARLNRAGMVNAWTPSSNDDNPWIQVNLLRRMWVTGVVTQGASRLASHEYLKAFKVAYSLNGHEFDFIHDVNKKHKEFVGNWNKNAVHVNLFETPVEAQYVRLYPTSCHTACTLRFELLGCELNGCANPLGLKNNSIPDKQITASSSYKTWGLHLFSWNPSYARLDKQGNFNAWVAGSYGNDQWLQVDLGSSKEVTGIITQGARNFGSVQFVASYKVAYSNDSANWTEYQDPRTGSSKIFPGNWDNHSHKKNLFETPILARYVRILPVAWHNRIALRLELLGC
UniProt Q8IVS2: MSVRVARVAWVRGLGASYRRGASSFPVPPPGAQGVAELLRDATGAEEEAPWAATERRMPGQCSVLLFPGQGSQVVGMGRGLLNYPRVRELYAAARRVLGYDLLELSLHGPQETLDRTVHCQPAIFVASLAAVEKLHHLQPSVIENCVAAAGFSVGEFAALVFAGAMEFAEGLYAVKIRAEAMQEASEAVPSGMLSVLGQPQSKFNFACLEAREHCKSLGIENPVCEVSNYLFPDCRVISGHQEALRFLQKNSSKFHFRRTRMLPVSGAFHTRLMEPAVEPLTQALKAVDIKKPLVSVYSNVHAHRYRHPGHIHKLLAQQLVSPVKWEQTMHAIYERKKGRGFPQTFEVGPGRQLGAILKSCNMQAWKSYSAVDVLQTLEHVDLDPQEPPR
UniProt Q15648, whole entry, looked up: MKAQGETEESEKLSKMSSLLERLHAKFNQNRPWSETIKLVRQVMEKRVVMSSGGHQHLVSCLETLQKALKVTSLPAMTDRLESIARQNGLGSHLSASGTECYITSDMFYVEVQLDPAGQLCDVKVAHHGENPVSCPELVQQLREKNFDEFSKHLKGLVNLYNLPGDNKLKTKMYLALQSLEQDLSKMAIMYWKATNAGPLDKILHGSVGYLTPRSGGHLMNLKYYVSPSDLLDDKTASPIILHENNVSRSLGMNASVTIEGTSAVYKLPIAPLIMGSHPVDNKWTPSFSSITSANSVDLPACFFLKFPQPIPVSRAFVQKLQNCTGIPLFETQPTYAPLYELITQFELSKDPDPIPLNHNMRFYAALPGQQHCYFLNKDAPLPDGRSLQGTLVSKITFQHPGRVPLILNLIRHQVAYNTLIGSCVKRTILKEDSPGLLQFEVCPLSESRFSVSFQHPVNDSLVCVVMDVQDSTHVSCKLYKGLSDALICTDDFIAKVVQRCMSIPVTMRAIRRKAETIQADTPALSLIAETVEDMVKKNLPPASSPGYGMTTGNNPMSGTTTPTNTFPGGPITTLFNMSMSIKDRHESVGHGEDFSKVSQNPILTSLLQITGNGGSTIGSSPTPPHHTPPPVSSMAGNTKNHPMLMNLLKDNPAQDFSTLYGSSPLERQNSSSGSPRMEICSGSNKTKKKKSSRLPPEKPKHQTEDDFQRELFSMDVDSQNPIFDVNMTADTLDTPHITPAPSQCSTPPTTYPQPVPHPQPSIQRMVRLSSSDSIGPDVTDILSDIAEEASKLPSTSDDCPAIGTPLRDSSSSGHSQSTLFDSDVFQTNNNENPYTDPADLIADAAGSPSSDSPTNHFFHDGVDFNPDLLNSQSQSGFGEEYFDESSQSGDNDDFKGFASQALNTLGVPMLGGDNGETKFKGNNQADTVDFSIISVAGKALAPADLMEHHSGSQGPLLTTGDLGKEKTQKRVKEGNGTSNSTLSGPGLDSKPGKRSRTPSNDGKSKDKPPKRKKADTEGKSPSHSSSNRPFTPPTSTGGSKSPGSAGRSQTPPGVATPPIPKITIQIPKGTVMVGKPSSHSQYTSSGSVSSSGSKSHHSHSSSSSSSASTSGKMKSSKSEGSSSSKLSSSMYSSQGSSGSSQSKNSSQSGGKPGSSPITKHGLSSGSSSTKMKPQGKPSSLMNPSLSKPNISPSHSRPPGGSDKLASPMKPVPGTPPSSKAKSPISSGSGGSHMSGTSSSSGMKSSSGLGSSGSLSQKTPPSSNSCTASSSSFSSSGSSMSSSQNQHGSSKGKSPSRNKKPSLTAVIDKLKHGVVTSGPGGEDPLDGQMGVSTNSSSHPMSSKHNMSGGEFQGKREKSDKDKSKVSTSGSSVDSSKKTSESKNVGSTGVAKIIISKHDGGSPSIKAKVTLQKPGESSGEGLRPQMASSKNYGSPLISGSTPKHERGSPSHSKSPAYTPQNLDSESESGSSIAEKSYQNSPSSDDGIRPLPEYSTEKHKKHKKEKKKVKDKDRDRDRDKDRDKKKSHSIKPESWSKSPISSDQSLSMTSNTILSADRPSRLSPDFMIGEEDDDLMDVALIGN
UniProt P55081: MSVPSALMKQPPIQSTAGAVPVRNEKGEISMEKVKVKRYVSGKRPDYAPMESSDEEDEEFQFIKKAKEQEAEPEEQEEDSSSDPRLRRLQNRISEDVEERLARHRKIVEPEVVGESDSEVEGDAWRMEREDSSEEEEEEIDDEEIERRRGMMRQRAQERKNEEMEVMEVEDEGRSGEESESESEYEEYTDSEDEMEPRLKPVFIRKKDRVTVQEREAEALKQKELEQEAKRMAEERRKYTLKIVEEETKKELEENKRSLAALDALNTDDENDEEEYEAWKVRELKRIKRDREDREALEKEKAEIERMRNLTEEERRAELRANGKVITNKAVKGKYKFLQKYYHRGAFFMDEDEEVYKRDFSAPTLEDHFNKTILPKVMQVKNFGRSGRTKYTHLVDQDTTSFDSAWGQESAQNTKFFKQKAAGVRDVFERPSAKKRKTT
UniProt Q86XN8: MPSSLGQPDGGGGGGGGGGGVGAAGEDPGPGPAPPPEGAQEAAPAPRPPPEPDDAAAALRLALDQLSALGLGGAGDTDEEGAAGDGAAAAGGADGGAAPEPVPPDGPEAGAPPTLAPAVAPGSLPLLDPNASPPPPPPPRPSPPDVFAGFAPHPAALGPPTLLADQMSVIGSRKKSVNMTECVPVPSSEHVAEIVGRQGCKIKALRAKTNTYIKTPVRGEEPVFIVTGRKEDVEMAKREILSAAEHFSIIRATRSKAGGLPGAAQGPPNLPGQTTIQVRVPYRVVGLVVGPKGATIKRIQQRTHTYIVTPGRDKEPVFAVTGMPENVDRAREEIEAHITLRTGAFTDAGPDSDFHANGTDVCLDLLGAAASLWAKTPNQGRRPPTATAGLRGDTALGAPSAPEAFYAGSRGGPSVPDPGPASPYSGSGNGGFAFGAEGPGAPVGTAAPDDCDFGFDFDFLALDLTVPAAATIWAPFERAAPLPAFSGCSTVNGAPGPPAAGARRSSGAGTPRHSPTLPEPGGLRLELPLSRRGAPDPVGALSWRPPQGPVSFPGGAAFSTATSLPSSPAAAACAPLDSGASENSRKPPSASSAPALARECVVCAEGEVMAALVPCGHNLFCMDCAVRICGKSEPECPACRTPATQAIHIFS
UniProt Q9BUE0: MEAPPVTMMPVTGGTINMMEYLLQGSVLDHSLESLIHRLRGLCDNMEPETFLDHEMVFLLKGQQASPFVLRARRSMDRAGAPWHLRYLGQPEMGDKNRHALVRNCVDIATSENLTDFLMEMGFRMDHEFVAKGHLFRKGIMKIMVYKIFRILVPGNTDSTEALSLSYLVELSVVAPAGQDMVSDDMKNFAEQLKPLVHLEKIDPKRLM
UniProt C9JP00: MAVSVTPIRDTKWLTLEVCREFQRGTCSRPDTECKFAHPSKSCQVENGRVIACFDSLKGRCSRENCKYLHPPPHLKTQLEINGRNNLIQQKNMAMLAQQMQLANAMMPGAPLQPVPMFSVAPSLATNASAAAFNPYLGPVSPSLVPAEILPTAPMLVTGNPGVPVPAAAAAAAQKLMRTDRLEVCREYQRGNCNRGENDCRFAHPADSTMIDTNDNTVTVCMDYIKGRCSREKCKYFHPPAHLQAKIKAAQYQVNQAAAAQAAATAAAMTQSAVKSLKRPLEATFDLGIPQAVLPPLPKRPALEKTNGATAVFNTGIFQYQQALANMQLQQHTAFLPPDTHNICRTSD
UniProt P25205: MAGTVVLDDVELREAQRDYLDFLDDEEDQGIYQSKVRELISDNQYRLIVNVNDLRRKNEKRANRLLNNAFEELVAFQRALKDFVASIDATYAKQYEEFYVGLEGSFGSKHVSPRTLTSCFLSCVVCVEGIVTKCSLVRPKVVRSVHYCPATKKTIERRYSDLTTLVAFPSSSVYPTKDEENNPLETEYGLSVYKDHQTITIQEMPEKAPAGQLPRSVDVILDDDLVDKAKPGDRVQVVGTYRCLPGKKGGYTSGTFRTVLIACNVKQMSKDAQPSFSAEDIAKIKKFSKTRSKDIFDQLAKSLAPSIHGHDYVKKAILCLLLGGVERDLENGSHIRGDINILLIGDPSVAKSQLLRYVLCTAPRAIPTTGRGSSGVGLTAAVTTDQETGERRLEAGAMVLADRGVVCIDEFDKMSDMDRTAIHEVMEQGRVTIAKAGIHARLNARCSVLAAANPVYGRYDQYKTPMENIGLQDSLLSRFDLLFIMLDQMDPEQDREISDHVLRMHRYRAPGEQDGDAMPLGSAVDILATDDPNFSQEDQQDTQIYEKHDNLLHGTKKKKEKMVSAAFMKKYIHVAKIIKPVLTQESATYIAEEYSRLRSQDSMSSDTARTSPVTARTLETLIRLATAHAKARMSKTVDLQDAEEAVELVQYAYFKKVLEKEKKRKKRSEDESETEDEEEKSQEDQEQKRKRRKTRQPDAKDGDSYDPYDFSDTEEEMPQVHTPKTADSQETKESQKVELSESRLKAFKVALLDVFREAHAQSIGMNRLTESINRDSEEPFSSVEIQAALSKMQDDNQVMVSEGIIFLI
UniProt P48163: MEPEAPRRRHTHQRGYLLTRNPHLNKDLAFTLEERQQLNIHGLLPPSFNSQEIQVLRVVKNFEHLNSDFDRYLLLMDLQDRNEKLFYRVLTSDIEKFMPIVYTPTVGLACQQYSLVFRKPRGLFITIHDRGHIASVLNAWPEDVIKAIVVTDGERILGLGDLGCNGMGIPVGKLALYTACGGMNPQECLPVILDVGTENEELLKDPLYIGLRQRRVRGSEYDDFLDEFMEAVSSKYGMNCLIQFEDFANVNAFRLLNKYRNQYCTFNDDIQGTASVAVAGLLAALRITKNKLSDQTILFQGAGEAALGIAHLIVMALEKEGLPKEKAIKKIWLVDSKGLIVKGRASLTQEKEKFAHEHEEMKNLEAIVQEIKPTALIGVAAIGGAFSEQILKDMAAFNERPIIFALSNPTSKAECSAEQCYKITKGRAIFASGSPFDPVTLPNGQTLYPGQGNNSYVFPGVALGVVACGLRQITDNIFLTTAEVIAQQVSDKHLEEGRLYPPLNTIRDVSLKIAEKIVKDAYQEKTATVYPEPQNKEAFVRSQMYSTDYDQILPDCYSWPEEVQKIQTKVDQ
UniProt Q9NPJ6: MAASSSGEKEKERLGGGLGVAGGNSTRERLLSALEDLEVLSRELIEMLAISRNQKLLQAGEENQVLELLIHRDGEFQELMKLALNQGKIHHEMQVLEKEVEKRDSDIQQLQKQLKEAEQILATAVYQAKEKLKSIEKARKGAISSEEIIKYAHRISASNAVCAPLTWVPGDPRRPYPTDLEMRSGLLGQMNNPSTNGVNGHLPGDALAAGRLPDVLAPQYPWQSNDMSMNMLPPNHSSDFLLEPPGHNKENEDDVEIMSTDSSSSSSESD
UniProt Q9BTT4: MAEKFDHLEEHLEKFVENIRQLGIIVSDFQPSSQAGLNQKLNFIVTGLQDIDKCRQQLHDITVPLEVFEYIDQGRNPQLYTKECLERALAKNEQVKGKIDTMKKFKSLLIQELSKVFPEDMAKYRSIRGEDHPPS

Assays:
Assay in all cases: log2 fold change, soluble protein after heating vs DMSO (PISA); higher = thermal stabilisation; K562 lysate, 10 uM; active = over 0.2 and 3.5 SD of the protein, either way, in both replicates (recomputed)
[1] = compound: C#Cc1cccc(Nc2ncnc3cc(OCCOC)c(OCCOC)cc23)c1 [erlotinib]
Summary of the method: (§1)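 Soluble protein was defined as the supernatant remaining after 21,000xg for 90 min, following pooling of heated aliquots and adjustment to 0.5% NP-40 at 4°C. Before that, crude K562 extract at 1 mg/mL protein in PBS pH 7.4 with 1 mM MgCl2 was treated with 10 μM compound for 30 min and heated for 3 min across 48°C-58°C. Quantification used TMTpro 16plex LC-MS/MS with channel sums equalised, and values are log-two fold changes in thermal stability relative to solvent controls from duplicates.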

[2] = compound: C/C(=N\NC(=O)C1=CC(=CC=C1)S(=O)(=O)N2CCOCC2)/C3=C(C=CC(=C3)Cl)O
Summary of the method: as §1

[3] = compound: C1=CC(=CC=C1C2=NC3=C(N2)C=C(C=C3)C(=O)N)OC4=CC=C(C=C4)Cl
Summary of the method: as §1

[4] = compound: C1=CC2=C(C=CC(=C2)/C=C\3/C(=O)NC(=NCC4=CC=CS4)S3)N=C1
Summary of the method: as §1

[5] = compound: C1=CC2=NC=CN=C2C=C1/C=C/3\C(=O)NC(=O)S3
Summary of the method: as §1

[6] = compound: C1=CC=C(C=C1)C2=NC(=C(N2)C3=CC=NC=C3)C4=CC(=C(C=C4)Cl)O
Summary of the method: as §1

[7] = compound: C1=CC=C2C(=C1)C3=NNC4=CC=CC(=C43)C2=O
Summary of the method: as §1

[8] = compound: C1CCN(C1)C(=O)NC2=CC=CC(=C2)NC3=NC=C(C(=N3)NCCC4=CN=CN4)Br
Summary of the method: as §1

[9] = compound: C1CN(CCC1(CC2=CC=C(C=C2)Cl)N)C3=NC=NC4=C3C=CN4
Summary of the method: as §1

[10] = compound: C1COCCN1CCN2C3=CC=CC=C3N=C2NC(=O)C4=CC(=CC=C4)[N+](=O)[O-] [IRAK-1-4 Inhibitor I]
Summary of the method: as §1

Measured: log2 fold change

MEMO1 (UniProt Q9Y316)
inactive: [1] 0.006 | [2] 0.036 | [3] 0.035 | [4] 0.023 | [5] 0.035 | [6] 0.004 | [7] -0.048 | [8] -0.021 | [9] 0.035 | [10] -0.014

MEF2A (UniProt Q02078)
inactive: [1] 0.002 | [2] 0.001 | [3] 0.025 | [4] 0 | [5] -0.096 | [6] -0.059 | [7] -0.063 | [8] 0.171 | [9] 0.216 | [10] 0.09

MAZ isoform 2 (UniProt P56270)
inactive: [1] -0.017 | [2] 0.099 | [3] -0.072 | [4] 0 | [5] -0.055 | [6] 0.038 | [7] 0.209 | [8] 0.003 | [9] -0.052 | [10] 0.003

MFGE8 (UniProt Q08431)
inactive: [1] -0.012 | [2] 0.014 | [3] 0.036 | [4] -0.055 | [5] -0.014 | [6] 0.001 | [7] 0.009 | [8] 0.001 | [9] 0.017 | [10] 0

METTL26 (UniProt Q96S19)
inactive: [1] -0.07 | [2] 0.08 | [3] -0.115 | [4] -0.002 | [5] -0.042 | [6] 0.074 | [7] -0.09 | [8] -0.096 | [9] 0.036 | [10] 0.009

MCAT (UniProt Q8IVS2)
inactive: [1] -0.086 | [2] 0.032 | [3] 0.007 | [4] -0.001 | [5] -0.005 | [6] -0.035 | [7] 0.018 | [8] 0.001 | [9] 0.021 | [10] -0.01

MED1 (UniProt Q15648)
inactive: [1] -0.011 | [2] 0.042 | [3] 0.016 | [4] -0.021 | [5] 0.008 | [6] 0.027 | [7] -0.046 | [8] -0.004 | [9] -0.001 | [10] 0.012

MDN1 (UniProt Q9NU22)
inactive: [1] -0.029 | [2] 0.009 | [3] 0.015 | [4] 0.021 | [5] 0.02 | [6] 0.005 | [7] -0.058 | [8] -0.018 | [9] 0.011 | [10] 0.008

MFAP1 (UniProt P55081)
inactive: [1] -0.016 | [2] -0.028 | [3] 0.074 | [4] -0.026 | [5] -0.04 | [6] 0.025 | [7] -0.021 | [8] -0.004 | [9] -0.036 | [10] -0.002

MECP2 isoform 2 (UniProt P51608)
inactive: [1] -0.007 | [2] -0.245 | [3] 0.004 | [4] 0.004 | [5] 0.035 | [6] 0.022 | [7] 0.026 | [8] -0.036 | [9] 0.053 | [10] 0.012

MED23 (UniProt Q9ULK4)
inactive: [1] -0.009 | [2] -0.036 | [3] 0.014 | [4] -0.022 | [5] -0.01 | [6] -0.028 | [7] -0.001 | [8] -0.046 | [9] 0.019 | [10] -0.012

MEX3D isoform 3 (UniProt Q86XN8)
inactive: [1] -0.115 | [2] -0.066 | [3] -0.048 | [4] 0.031 | [5] -0.042 | [6] 0.004 | [7] 0.003 | [8] 0.146 | [9] 0.056 | [10] 0.077

MED18 (UniProt Q9BUE0)
inactive: [1] -0.03 | [2] 0.008 | [3] 0.004 | [4] -0.01 | [5] 0.015 | [6] 0.021 | [7] -0.017 | [8] -0.005 | [9] -0.015 | [10] 0.047

MED30 (UniProt Q96HR3)
inactive: [1] 0.036 | [2] -0.005 | [3] 0.03 | [4] 0.007 | [5] 0.044 | [6] -0.028 | [7] 0.055 | [8] -0.025 | [9] 0.007 | [10] -0.025

MFN2 (UniProt O95140)
inactive: [1] 0.055 | [2] 0.023 | [3] -0.011 | [4] -0.003 | [5] 0.005 | [6] 0.008 | [7] 0.016 | [8] -0.004 | [9] 0.027 | [10] 0.016

MBNL1 (UniProt C9JP00)
inactive: [1] 0.034 | [2] 0.121 | [3] 0.024 | [4] 0.021 | [5] -0.029 | [6] -0.045 | [7] 0.039 | [8] 0.047 | [9] 0.016 | [10] 0.087

MDH2 (UniProt P40926)
inactive: [1] -0.039 | [2] 0.014 | [3] -0.002 | [4] -0.016 | [5] -0.01 | [6] -0.002 | [7] 0.003 | [8] 0.007 | [9] 0.004 | [10] 0.008

MCM3 isoform 2 (UniProt P25205)
inactive: [1] 0.005 | [2] 0.013 | [3] 0 | [4] 0.002 | [5] 0.011 | [6] 0.003 | [7] 0.013 | [8] 0.011 | [9] 0.015 | [10] -0.016

METAP1 (UniProt P53582)
inactive: [1] 0.006 | [2] -0.055 | [3] 0.011 | [4] 0.004 | [5] -0.041 | [6] -0.024 | [7] 0.012 | [8] -0.01 | [9] 0.026 | [10] 0.036

MESD (UniProt Q14696)
inactive: [1] -0.01 | [2] 0.001 | [3] 0.023 | [4] -0.005 | [5] -0.006 | [6] -0.013 | [7] 0.069 | [8] -0.005 | [9] -0.001 | [10] -0.02

MECR (UniProt Q9BV79)
inactive: [1] -0.019 | [2] 0.027 | [3] -0.005 | [4] -0.028 | [5] 0.012 | [6] -0.038 | [7] -0.035 | [8] -0.053 | [9] 0.079 | [10] 0.025

ME1 (UniProt P48163)
inactive: [1] 0 | [2] 0.006 | [3] 0.016 | [4] 0.036 | [5] 0.005 | [6] -0.028 | [7] 0.002 | [8] 0.078 | [9] -0.015 | [10] -0.012

MED16 (UniProt Q9Y2X0)
inactive: [1] 0.018 | [2] -0.033 | [3] 0.001 | [4] 0.019 | [5] -0.011 | [6] 0.008 | [7] -0.071 | [8] 0.01 | [9] -0.045 | [10] -0.001

MED4 (UniProt Q9NPJ6)
inactive: [1] -0.016 | [2] 0.005 | [3] 0.025 | [4] 0.027 | [5] -0.017 | [6] -0.002 | [7] -0.008 | [8] 0.042 | [9] 0.006 | [10] 0.009

MBD2 (UniProt Q9UBB5)
inactive: [1] 0.013 | [2] -0.933 | [3] -0.003 | [4] 0.05 | [5] -0.016 | [6] 0.094 | [7] 0.023 | [8] -0.069 | [9] -0.011 | [10] 0.016

METTL2A (UniProt Q96IZ6)
inactive: [1] 0.023 | [2] -0.009 | [3] -0.026 | [4] 0.037 | [5] 0 | [6] -0.018 | [7] -0.026 | [8] 0.002 | [9] 0.166 | [10] 0.042

8 successive entries out of the list so far, quoted:
MBNL1 (UniProt C9JP00)
inactive: [1] 0.034 | [2] 0.121 | [3] 0.024 | [4] 0.021 | [5] -0.029 | [6] -0.045 | [7] 0.039 | [8] 0.047 | [9] 0.016 | [10] 0.087

MDH2 (UniProt P40926)
inactive: [1] -0.039 | [2] 0.014 | [3] -0.002 | [4] -0.016 | [5] -0.01 | [6] -0.002 | [7] 0.003 | [8] 0.007 | [9] 0.004 | [10] 0.008

MCM3 isoform 2 (UniProt P25205)
inactive: [1] 0.005 | [2] 0.013 | [3] 0 | [4] 0.002 | [5] 0.011 | [6] 0.003 | [7] 0.013 | [8] 0.011 | [9] 0.015 | [10] -0.016

METAP1 (UniProt P53582)
inactive: [1] 0.006 | [2] -0.055 | [3] 0.011 | [4] 0.004 | [5] -0.041 | [6] -0.024 | [7] 0.012 | [8] -0.01 | [9] 0.026 | [10] 0.036

MESD (UniProt Q14696)
inactive: [1] -0.01 | [2] 0.001 | [3] 0.023 | [4] -0.005 | [5] -0.006 | [6] -0.013 | [7] 0.069 | [8] -0.005 | [9] -0.001 | [10] -0.02

MECR (UniProt Q9BV79)
inactive: [1] -0.019 | [2] 0.027 | [3] -0.005 | [4] -0.028 | [5] 0.012 | [6] -0.038 | [7] -0.035 | [8] -0.053 | [9] 0.079 | [10] 0.025

ME1 (UniProt P48163)
inactive: [1] 0 | [2] 0.006 | [3] 0.016 | [4] 0.036 | [5] 0.005 | [6] -0.028 | [7] 0.002 | [8] 0.078 | [9] -0.015 | [10] -0.012

MED16 (UniProt Q9Y2X0)
inactive: [1] 0.018 | [2] -0.033 | [3] 0.001 | [4] 0.019 | [5] -0.011 | [6] 0.008 | [7] -0.071 | [8] 0.01 | [9] -0.045 | [10] -0.001

(cont.)

MBIP (UniProt Q9NS73)
inactive: [1] 0.002 | [2] -0.018 | [3] 0.065 | [4] -0.183 | [5] -0.126 | [6] -0.078 | [7] -0.166 | [8] -0.188 | [9] -0.007 | [10] -0.024

METTL1 (UniProt Q9UBP6)
inactive: [1] -0.062 | [2] -0.049 | [3] -0.003 | [4] -0.002 | [5] -0.024 | [6] -0.003 | [7] 0.027 | [8] 0.022 | [9] -0.01 | [10] 0.003

MED10 (UniProt Q9BTT4)
inactive: [1] 0.049 | [2] -0.077 | [3] 0.044 | [4] 0.028 | [5] -0.149 | [6] -0.015 | [7] 0.029 | [8] 0.102 | [9] 0.101 | [10] -0.022

MDP1 (UniProt Q86V88)
inactive: [1] 0.01 | [2] -0.036 | [3] 0 | [4] 0.018 | [5] -0.012 | [6] -0.024 | [7] 0 | [8] 0.013 | [9] 0.06 | [10] 0
